Our source for the normalized growth values is the supplement of paper PMC6331611.

± gives the standard deviation of the averaged measurements. Whole data set: some 1,600 compounds, median “normalized growth (OD600, IQM-normalized) in LPM” near 1, cut for the lowest 2% near 0.014. The list shows a part of the results.

This assay has as its system Salmonella enterica serovar Typhimurium SL1344. As to the kind of experiment: normalized growth (OD600, IQM-normalized) in LPM (fraction of plate interquartile mean); higher = more bacterial growth (less inhibition). The settings on record: LPM pH 5.8; 10 µM; 16 h.
`COC(=O)C1=C(C)NC(C)=C(C(=O)OCC(C)C)C1c1ccccc1[N+](=O)[O-]` (configuration not stated) registered a normalized growth of 0.401 ± 0.024.
Under `CN1CCN(c2c(F)cc3c(=O)c(C(=O)O)cn4c3c2SCC4)CC1` stands 0.02519 ± 0.00023; under `COC(=O)C1=C(C)NC(C)=C(C(=O)OCCN(C)Cc2ccccc2)C1c1cccc([N+](=O)[O-])c1` (configuration not stated), 0.976 ± 0.055; under `Cc1ccccc1C(OCCN(C)C)c1ccccc1` (configuration not stated), 0.94 ± 0.048.
`O=C1C(O)=C([C@H]2CC[C@H](c3ccc(Cl)cc3)CC2)C(=O)c2ccccc21` showed a normalized growth of 1.047 ± 0.0079.
For `COc1c2ccoc2cc2oc(=O)ccc12` the value was 1.11 ± 0.064; for `NC(=O)NC1NC(=O)NC1=O` (configuration not stated), 0.986 ± 0.053.
Under `O=C1CCc2ccc(OCCCCN3CCN(c4cccc(Cl)c4Cl)CC3)cc2N1` stands 1.04 ± 0.03.
Compound `CN(C)CCOC(c1ccc(Cl)cc1)c1ccccn1` (configuration not stated) had a normalized growth of 1.04 ± 0.035.
Under `CCCCCOC(=O)Nc1nc(=O)n([C@@H]2O[C@H](C)[C@@H](O)[C@H]2O)cc1F` stands 1.36 ± 0.17.
Under `CCCCNc1ccc(C(=O)OCCN(C)C)cc1` stands 1.06 ± 0.023.
Consider `CCN(CC)CCOc1ccc(C(=C(Cl)c2ccccc2)c2ccccc2)cc1`, for which the normalized growth worked out at 1.07 ± 0.023.
Under `CN1CCC(=C2c3ccccc3CCc3sccc32)CC1` stands 1.02 ± 0.019.
In turn, `CN1CCOC(c2ccccc2)c2ccccc2C1` (configuration not stated) yielded a normalized growth of 1.28 ± 0.087.
For `O=C1[C@H](CC[C@H](O)c2ccc(F)cc2)[C@@H](c2ccc(O)cc2)N1c1ccc(F)cc1` the value was 1.09 ± 0.1; for `O=S(=O)(O)c1cc(I)c(O)c2ncccc12`, 0.986 ± 0.052.
The compound `Cc1cnc(C(=O)NCCc2ccc(S(=O)(=O)NC(=O)NC3CCCCC3)cc2)cn1` gave a normalized growth of 0.979 ± 0.059.
Under `O=C(O)COCCN1CCN([C@H](c2ccccc2)c2ccc(Cl)cc2)CC1` stands 0.951 ± 0.031; under `CC(O)(P(=O)(O)O)P(=O)(O)O`, 1.09 ± 0.045.
Compound `CCC1NC(=O)c2cc(S(N)(=O)=O)c(Cl)cc2N1` (configuration not stated) showed a normalized growth of 0.932 ± 0.036.
Under `CC(C)Cc1ccc(C(C)C(=O)O)cc1` (configuration not stated) stands 0.861 ± 0.032; under `COc1ccc(CN2CCN(C(c3ccc(F)cc3)c3ccc(F)cc3)CC2)c(OC)c1OC`, 0.926 ± 0.07.
For `OCc1ccccn1` the value was 0.99 ± 0.079; for `COCCc1ccc(OCC(O)CNC(C)C)cc1` (configuration not stated), 1.14 ± 0.11; for `Nc1nc2[nH]cc(CCc3ccc(C(=O)N[C@@H](CCC(=O)O)C(=O)O)cc3)c2c(=O)[nH]1`, 1.03 ± 0.04.
Under `CC(C)(C)NC[C@H](O)COc1ccccc1C1CCCC1` stands 1.05 ± 0.017; under `COc1ccc(C(=O)c2ccccc2O)c(O)c1`, 1 ± 0.027; under `Cc1ncc(COP(=O)([O-])[O-])c(CN(CCN(CC(=O)O)Cc2c(COP(=O)([O-])O)cnc(C)c2O)CC(=O)O)c1O.[Mn].[Na+].[Na+].[Na+]`, 1.04 ± 0.03.
In turn, `CC1=C(C/C=C(\C)CCC[C@H](C)CCC[C@H](C)CCCC(C)C)C(=O)c2ccccc2C1=O` came in with a normalized growth of 1.02 ± 0.063.
For `O=C(O)C1(C(=O)O)CCC1.[NH2-].[NH2-].[Pt+2]` the value was 0.471 ± 0.4; for `Cc1cnc(C(=O)O)c[n+]1[O-]`, 0.993 ± 0.078.
For `CC(=O)Nc1cccc(O)c1` the value was 1.02 ± 0.014; for `CC/C(=C(\c1ccccc1)c1ccc(OCCN(C)C)cc1)c1ccccc1`, 1.12 ± 0.05; for `CCc1oc2ccccc2c1C(=O)c1cc(Br)c(O)c(Br)c1`, 1 ± 0.018.
Take `NCc1ccc(S(N)(=O)=O)cc1`: the normalized growth is 1.94 ± 0.42.
Compound `CN[C@@H]1[C@H](O[C@H]2[C@H](O[C@H]3[C@H](O)[C@@H](O)[C@H](NC(=N)N)[C@@H](O)[C@@H]3NC(=N)N)O[C@@H](C)[C@]2(O)CO)O[C@@H](CO)[C@H](O)[C@H]1O` returned a normalized growth of 0.952 ± 0.011.
As for `CC[N+](CC)(CC)CCOc1cccc(OCC[N+](CC)(CC)CC)c1OCC[N+](CC)(CC)CC`, the normalized growth was 1.04 ± 0.041.
As to `CCOC(=O)[N-]c1c[n+](N2CCOCC2)no1`, the normalized growth was found to be 0.972 ± 0.073.
Under `CC(C)(C)NCC(O)c1cc(O)cc(O)c1` (configuration not stated) stands 1.07 ± 0.017; under `C#C[C@]1(O)CC[C@H]2[C@@H]3CCC4=C(CCC(=O)C4)[C@H]3CC[C@@]21C`, 0.956 ± 0.026; under `COc1cc2ncnc(Nc3ccc(F)c(Cl)c3)c2cc1OCCCN1CCOCC1`, 1.21 ± 0.16.
Under `CCOc1ccc(NC(C)=O)cc1` stands 0.947 ± 0.028; under `CN1CCC[C@@H]1CCO[C@](C)(c1ccccc1)c1ccc(Cl)cc1`, 1.02 ± 0.026.
Under `O=C(O)c1ccccc1` stands 1.02 ± 0.045; under `CC(=O)Nc1ccc(C(=O)O)cc1`, 1.01 ± 0.14.
As to `OC(CCN1CCCCC1)(c1ccccc1)C1CCCCC1` (configuration not stated), the normalized growth came to 0.942 ± 0.093.
In turn, `N=C(N)N/N=C/c1c(Cl)cccc1Cl` gave a normalized growth of 1.02 ± 0.021.
On to `Cc1ccc2c(Cl)cc(Cl)c(O)c2n1`, for which the normalized growth was 0.917 ± 0.023.
Under `CCCc1nc(C(C)(C)O)c(C(=O)O)n1Cc1ccc(-c2ccccc2-c2nnn[nH]2)cc1` stands 1.03 ± 0.1.
As for `O=C(OCc1ccccc1)c1ccccc1`, the normalized growth amounted to 1.09 ± 0.044.
`CN(C)CCOC(=O)COc1ccc(Cl)cc1`: the normalized growth was 1.01 ± 0.03.
For `COC(=O)C(N)CS` (configuration not stated) the value was 0.992 ± 0.042.
